{"source": "patent US20130195757", "about": "“SPARC BINDING APTAMERS AND USES THEREOF” (ABRAXIS BIOSCIENCE, LLC, published 2013)", "key": {"[1]": {"molecular_target": "T1, SPARC (osteonectin), recombinant human (Biol-SPARC) (Homo sapiens) (UniProt P09486)", "T1 sequence (looked up, limits assumed)": "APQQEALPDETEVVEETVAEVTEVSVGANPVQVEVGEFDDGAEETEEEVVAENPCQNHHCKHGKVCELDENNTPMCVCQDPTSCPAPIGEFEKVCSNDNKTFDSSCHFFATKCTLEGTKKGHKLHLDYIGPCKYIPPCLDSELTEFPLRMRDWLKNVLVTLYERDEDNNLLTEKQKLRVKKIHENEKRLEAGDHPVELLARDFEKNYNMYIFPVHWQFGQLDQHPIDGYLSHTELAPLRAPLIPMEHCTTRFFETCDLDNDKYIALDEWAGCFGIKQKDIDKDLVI", "assay": "SPR", "conditions": "aptamer immobilized on SA chip; heterogeneous ligand model KD2; KD1 362 nM; purified recombinant protein; label: 3'-biotin; single-stranded DNA; variant of Apt180"}, "[2]": {"molecular_target": "T2, SPARC, recombinant human expressed in E. coli (Homo sapiens) (UniProt P09486)", "T2 sequence (looked up, limits assumed)": "T1 sequence (looked up, limits assumed)", "assay": "SPR", "conditions": "aptamer immobilized on SA chip; purified recombinant protein; protein details: E. coli expressed; label: 3'-biotin; single-stranded DNA; variant of Apt180"}}, "note": "For at least one entry, the source does not settle the construct or the ends of the probe. Protein sequences can lack the tags named with them."}
{"sequence": "GAATTCGATGGTAACCAAGGCTGTTCGGTATTTTGATATTTTTATGCGTCATCTGATCTAGCCAAG [Apt180 3'-biotin]", "values": [{"measurement": "Kd", "setting": "[1]", "value": 0.174, "unit": "nM"}, {"measurement": "Kd", "setting": "[2]", "value": 52.5, "unit": "nM"}]}
